Test results: article PMC8149794
For at least one entry, the source does not settle the construct or the ends of the probe.

Legend:
[1] = target: PpILR1 (Prunus persica) (UniProt M5W208); assay: EMSA; conditions: Thermo Scientific EMSA kit, per manufacturer's instructions; pH and temperature not stated; recombinant protein; protein details: GST (pGEX-6P-1, N-terminal); label: 5' biotin
[2] = target: PpILR1-M C137S (Prunus persica) (UniProt M5W208); assay: EMSA; conditions: Thermo Scientific EMSA kit, per manufacturer's instructions; pH and temperature not stated; recombinant protein; protein details: GST (pGEX-6P-1, N-terminal); label: 5' biotin

“CGTAAAAGTTTTGAGTCGGGAAGTAATCGGTGACATGTTAAATTCAAACTATACTAATATGG (double strand) [PpACS1-P1 GTGACA probe]”: binds [1]; binds [2].
